Patent US20210214435A1
Results are given in words; binding and its absence hold for the method and conditions named. A result given as binding can be weak or reduced; the word gives no strength.

What was measured:
[1] = biological target: cynomolgus monkey GPVI on the cell surface of cynomolgus monkey platelets (cynomolgus monkey); test: FACS on washed cynomolgus platelets from PRP (one donor), PE-conjugated detection antibody, median fluorescence
[2] = biological target: cynomolgus monkey GPVI on the cell surface of cynomolgus monkey platelets (cynomolgus monkey); test: FACS on platelets from platelet-rich plasma

| binding [1] | binding [2] | Binder |
| --- | --- | --- |
| binds | binds | Fab #4 comprising a modified heavy chain constant region (Fab, V domains shown) VH: QVQLVQSGAEVKKPGASVKVSCKASGGAFTSSYMHWVRQAPGQGLEWMGIIEPTGASTLYAQRFQGRVTMTRDTSTSTVYMELSSLRSEDTAVYYCARTGIALPLGFDLWGQGTLVTVSS VL: QSVLTQPPSVSAAPGQKVTISCSGSSSNIGNNYVSWYQQLPGTAPKLLIYDNNKRPSGIPDRFSGSKSGTSATLGITGLQTEDEADYYCAAWSTRFRWVFGGGTKLTVLG |
| binds |  | Reference Control Antibody RefFab #1 (humanized GPVI antibody of WO2011073954A2, SANOFI) (Fab, V domains shown) VH: EVQLLESGPGLVAPSGSLSITCTVSGFSLTGYGVNWVRQPPGKGLEWLGMIWGDGSTDYQSTLKSRLSISKDNSKSQVFLKMNSLRTDDTARYYCARDLPMDYWGLGTSVTVSS VL: DIQMTQSPSSLSASVGGRVTITCKASQDINKYIAWYQHKPGKGPSLLIHYTSTLQPGVPSRFSGSGSGRDYSFSISNLQPEDIATYYCLQYANLLTFGGGTKLEIKR |
| binds | binds | Fab #1 comprising a modified heavy chain constant region (Fab, V domains shown) VH: QVQLVQSGAEVKKPGASVKVSCKASGYTFTSHYMHWVRQAPGQGLEWMGLIEPSEGETEYAQRFQGRVTMTRDTSTSTVYMELSSLRSEDTAVYYCARDSSRSYPLGFDIWGQGTLVTVSS VL: QSVLTQPPSVSAAPGQKVTISCSGSSSNIGNNYVSWYQQLPGTAPKLLIYDNNKRPSGIPDRFSGSKSGTSATLGITGLQTEDEADYYCAAWDFRSSRWVFGGGTKLTVLG |
| binds | binds | Fab #2 comprising a modified heavy chain constant region (Fab, V domains shown) VH: QVQLVESGGGLVKPGGSLRLSCAASGFSFSDHYMSWIRQAPGKGLEWVSSVGSEGKFIDYAASVKGRFTISRDNAKNSLYLQMNSLRAEDTAVYYCARHYREFRWHYYYFDYWGQGTLVTVSS VL: QSVLTQPPSVSGAPGQRVTISCTGSSSNIGAGYDVHWYQQLPGTAPKLLIYGNSNRPSGVPDRFSGSKSGTSASLAITGLQAEDEADYYCQSHDLGAHVWVFGGGTKLTVLG |
| binds | binds | Fab #3 comprising a modified heavy chain constant region (Fab, V domains shown) VH: QVQLVESGGGLVKPGGSLRLSCAASGFSFGDYYVSWIRQAPGKGLEWVSAIGGSGSAVQYAESVKGRFTISRDNAKNSLYLQMNSLRAEDTAVYYCARHYREFRWHYYYFDYWGQGTLVTVSS VL: QSVLTQPPSVSGAPGQRVTISCTGSSSNIGAGYDVHWYQQLPGTAPKLLIYGNSNRPSGVPDRFSGSKSGTSASLAITGLQAEDEADYYCQSHDLGAHVWVFGGGTKLTVLG |
